Reference: the supplement of paper PMC10849652
This is one part of the list.

Amino acid sequences for entries named in this document (tags omitted). A change or cut given only in a name is not applied to a line headed by its entry.
UniProt Q9H875: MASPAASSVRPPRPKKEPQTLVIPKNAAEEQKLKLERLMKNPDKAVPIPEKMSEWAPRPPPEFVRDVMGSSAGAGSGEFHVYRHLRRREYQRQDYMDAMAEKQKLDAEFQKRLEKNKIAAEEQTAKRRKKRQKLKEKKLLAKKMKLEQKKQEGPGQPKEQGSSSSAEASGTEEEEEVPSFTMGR
UniProt P62140, whole entry, looked up: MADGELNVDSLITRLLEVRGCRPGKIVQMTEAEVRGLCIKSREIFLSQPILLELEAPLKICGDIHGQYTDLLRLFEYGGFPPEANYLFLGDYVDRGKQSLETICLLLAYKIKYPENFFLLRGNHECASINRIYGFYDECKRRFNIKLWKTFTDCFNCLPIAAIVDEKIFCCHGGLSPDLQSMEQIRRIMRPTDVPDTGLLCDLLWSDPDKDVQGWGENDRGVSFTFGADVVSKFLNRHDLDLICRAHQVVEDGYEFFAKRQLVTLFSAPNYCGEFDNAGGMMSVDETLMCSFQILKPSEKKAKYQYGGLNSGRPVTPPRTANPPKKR
UniProt Q04759: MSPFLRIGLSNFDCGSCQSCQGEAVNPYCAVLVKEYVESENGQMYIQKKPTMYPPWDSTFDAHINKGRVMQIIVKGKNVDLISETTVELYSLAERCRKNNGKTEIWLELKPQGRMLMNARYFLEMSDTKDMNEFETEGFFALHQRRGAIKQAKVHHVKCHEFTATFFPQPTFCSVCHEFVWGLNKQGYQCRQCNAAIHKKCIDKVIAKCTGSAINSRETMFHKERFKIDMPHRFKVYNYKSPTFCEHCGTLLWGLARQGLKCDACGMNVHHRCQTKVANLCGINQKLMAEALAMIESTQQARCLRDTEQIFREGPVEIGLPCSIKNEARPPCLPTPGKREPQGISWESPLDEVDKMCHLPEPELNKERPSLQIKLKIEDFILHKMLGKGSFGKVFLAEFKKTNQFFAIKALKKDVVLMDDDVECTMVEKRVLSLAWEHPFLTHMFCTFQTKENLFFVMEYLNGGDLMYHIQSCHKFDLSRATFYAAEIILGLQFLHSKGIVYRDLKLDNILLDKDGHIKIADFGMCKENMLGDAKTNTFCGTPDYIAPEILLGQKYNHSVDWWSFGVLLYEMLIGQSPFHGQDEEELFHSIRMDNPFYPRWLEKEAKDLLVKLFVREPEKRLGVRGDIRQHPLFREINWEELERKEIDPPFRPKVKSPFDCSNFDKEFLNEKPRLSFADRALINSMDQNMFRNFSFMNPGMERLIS
UniProt O75688: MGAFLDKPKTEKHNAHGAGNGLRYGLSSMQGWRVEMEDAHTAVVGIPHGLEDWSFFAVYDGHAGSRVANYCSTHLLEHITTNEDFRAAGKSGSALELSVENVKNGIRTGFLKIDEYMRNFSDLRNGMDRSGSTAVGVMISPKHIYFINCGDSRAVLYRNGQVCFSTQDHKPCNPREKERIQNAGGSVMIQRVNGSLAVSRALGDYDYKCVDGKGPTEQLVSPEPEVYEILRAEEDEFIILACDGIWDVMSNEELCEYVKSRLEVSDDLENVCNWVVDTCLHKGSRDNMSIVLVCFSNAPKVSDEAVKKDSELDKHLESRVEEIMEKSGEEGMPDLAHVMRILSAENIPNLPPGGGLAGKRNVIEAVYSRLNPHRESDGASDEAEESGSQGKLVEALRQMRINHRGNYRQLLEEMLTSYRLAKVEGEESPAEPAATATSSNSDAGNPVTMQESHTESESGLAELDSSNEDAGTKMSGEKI
UniProt Q9BZL6: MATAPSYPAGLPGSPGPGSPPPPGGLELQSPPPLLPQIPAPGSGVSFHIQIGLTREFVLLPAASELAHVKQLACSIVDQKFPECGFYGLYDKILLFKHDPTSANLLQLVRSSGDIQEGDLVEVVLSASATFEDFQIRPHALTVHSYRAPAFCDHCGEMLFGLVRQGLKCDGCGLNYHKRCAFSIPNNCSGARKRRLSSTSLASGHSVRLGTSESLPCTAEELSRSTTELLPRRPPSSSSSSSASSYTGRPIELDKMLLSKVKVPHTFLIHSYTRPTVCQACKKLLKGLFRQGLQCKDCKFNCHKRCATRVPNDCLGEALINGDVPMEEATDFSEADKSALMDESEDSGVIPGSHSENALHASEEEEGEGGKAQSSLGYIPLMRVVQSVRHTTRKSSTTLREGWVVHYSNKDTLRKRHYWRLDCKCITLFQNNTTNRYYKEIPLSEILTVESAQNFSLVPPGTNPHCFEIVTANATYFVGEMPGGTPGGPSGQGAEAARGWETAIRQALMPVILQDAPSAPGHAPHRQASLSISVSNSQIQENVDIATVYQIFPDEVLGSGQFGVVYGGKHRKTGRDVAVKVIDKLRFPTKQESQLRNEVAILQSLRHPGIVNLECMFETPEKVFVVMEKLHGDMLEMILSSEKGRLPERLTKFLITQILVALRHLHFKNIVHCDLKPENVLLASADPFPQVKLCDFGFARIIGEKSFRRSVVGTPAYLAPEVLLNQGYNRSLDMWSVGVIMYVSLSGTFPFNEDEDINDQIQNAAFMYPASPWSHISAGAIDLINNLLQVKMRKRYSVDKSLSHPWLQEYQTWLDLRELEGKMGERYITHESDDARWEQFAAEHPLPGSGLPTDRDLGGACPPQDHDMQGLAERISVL
UniProt P30153, whole entry, looked up: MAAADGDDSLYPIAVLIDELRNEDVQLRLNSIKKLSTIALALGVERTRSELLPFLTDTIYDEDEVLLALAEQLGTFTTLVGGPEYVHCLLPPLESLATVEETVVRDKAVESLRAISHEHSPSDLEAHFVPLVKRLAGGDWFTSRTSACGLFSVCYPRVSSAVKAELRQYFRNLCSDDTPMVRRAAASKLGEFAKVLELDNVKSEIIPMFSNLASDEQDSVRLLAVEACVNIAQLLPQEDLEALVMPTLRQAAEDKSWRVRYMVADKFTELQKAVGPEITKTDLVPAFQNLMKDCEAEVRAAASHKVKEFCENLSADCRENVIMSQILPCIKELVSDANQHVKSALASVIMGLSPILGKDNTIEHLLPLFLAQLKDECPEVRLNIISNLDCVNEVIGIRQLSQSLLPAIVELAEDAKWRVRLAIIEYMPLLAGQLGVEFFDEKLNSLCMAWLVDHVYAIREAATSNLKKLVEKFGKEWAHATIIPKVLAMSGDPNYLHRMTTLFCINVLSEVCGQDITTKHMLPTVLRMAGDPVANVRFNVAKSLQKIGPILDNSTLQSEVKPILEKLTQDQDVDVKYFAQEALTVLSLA
UniProt O43172: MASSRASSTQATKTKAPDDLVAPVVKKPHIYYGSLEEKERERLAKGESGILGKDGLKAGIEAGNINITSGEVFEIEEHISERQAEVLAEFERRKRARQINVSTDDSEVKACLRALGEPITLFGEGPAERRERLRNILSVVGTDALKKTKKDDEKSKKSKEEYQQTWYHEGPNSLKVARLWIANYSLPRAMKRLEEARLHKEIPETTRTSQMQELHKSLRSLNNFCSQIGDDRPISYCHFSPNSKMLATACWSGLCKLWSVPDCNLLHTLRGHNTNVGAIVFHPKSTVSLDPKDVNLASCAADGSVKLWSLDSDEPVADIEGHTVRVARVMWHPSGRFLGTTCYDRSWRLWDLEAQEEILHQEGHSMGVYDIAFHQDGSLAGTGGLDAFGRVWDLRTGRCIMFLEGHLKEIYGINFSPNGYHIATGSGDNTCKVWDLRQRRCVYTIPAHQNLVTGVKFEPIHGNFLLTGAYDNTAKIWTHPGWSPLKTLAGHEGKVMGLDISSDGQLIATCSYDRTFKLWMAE
UniProt Q86WR7: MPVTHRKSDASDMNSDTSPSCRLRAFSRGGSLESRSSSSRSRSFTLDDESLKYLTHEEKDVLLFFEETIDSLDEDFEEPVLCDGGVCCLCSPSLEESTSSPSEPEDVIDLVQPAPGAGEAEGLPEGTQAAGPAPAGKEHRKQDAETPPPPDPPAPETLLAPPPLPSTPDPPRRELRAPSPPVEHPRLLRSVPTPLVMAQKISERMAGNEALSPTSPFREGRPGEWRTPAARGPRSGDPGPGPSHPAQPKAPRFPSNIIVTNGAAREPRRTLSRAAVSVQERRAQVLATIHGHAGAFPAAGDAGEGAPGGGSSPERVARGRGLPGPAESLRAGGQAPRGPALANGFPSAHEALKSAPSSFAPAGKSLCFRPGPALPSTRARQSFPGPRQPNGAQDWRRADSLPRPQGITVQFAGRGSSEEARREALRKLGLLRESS
UniProt Q99633: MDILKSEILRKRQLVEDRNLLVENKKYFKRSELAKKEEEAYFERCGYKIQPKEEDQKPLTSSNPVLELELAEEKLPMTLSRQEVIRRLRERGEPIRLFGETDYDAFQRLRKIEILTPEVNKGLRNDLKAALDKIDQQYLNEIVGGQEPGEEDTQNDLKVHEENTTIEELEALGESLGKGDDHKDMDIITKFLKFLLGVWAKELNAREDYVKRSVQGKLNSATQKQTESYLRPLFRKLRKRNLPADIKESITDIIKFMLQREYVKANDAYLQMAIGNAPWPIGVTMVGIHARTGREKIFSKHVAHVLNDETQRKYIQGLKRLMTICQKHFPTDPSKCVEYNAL
UniProt P07478, whole entry, looked up: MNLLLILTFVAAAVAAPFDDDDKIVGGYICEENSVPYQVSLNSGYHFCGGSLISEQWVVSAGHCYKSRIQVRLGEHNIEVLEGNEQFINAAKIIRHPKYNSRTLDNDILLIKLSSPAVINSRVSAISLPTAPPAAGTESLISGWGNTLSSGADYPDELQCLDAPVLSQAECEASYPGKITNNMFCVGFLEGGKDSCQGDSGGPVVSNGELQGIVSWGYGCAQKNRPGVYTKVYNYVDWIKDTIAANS
UniProt Q96QC0: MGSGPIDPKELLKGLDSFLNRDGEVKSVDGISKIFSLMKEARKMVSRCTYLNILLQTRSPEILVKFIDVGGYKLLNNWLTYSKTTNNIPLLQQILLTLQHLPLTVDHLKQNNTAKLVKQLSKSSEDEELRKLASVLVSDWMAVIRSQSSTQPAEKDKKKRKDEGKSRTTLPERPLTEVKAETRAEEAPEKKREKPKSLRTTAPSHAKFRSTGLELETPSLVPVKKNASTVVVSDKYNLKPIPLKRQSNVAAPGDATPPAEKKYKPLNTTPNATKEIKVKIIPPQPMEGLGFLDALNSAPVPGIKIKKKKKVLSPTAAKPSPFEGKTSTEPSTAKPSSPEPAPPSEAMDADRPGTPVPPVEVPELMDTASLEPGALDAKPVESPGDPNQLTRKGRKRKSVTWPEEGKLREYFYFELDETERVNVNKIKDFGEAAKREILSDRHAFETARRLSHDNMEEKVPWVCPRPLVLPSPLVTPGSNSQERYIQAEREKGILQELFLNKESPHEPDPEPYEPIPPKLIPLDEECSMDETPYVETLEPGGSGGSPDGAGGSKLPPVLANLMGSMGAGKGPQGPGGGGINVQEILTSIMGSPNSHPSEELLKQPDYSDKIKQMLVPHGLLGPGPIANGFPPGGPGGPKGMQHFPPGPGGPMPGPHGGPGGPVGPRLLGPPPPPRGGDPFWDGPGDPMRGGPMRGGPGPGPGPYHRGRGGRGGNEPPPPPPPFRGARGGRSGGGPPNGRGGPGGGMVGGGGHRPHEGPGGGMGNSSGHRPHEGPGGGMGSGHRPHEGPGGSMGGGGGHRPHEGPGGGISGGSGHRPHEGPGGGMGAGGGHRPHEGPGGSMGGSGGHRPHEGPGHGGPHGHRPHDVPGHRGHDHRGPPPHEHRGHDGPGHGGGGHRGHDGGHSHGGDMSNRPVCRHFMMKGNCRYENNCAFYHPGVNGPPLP
UniProt Q9UMR5: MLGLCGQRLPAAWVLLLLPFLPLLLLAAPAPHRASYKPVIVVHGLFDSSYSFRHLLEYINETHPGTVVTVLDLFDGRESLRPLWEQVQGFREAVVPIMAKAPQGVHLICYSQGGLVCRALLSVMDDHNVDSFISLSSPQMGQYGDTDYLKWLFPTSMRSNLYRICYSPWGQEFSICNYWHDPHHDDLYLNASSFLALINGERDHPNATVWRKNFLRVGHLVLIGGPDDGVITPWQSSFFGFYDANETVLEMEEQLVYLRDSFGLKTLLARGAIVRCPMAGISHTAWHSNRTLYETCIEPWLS
UniProt Q96A00: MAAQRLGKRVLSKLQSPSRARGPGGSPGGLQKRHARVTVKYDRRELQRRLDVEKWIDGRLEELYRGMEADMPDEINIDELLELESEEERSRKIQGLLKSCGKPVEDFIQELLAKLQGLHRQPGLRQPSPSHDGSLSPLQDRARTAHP
UniProt P31323, whole entry, looked up: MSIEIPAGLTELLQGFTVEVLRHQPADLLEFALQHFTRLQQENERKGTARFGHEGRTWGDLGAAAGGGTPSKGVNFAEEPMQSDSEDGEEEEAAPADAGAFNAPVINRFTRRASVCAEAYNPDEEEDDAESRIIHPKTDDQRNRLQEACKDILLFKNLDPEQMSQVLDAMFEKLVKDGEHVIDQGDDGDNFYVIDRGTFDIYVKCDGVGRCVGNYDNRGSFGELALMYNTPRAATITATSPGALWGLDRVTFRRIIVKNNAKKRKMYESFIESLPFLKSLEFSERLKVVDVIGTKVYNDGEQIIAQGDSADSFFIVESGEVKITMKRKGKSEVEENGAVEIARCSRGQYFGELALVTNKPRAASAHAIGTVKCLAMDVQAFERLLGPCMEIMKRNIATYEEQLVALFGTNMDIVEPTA

Legend:
Assay in all cases: log2 fold change, soluble protein after heating vs DMSO (PISA); higher = thermal stabilisation; K562 cells, 10 uM, 30 min; active = over 0.2 and 3.5 SD of the protein, either way, in both replicates (recomputed)
[1] = compound: C1=CC=C(C=C1)[C@H](COC2=CC3=C(C=C2)NC(=O)N3)NC(=O)C4=CC=CN(C4=O)CC5=CC(=C(C=C5)F)F
Outline: (§1)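 K562 cells at 2×10^6 cells/mL were exposed to 10 μM compound for 30 min, then aliquots were heated for 3 min across 48°C-58°C, pooled, and extracted in PBS containing 0.5% NP-40 at 4°C. The supernatant after 21,000xg for 90 min was taken as soluble protein and measured by TMTpro 16plex LC-MS/MS with channel sums equalised. Thermal stability is reported relative to control samples, with values from duplicates. Fold changes are given on a log2 scale.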

[2] = compound: CC1=C(SC2=C1C(=N[C@H](C3=NN=C(N32)C)CC(=O)N)C4=CC=C(C=C4)Cl)C
Outline: as §1

[3] = compound: CC1=C2C(=CC=C1)N=C(N(C2=O)C3=CC=CC=C3C)CN4C=NC5=C(N=CN=C54)N
Outline: as §1

[4] = compound: Cc1sc2c(c1C)C(c1ccc(Cl)cc1)=N[C@@H](CC(=O)OC(C)(C)C)c1nnc(C)n1-2
Outline: as §1

[5] = compound: c1ccc([C@@H]2C[C@H]2NC2CCNCC2)cc1
Outline: as §1

Row | Target | log2 fold change [1] | log2 fold change [2] | log2 fold change [3] | log2 fold change [4] | log2 fold change [5]
1 | PRKRIP1 (UniProt Q9H875) | inactive: -0.015 | inactive: 0.031 | inactive: -0.017 | inactive: 0.089 | inactive: -0.051
2 | PRKD2 (UniProt M0R346) | inactive: 0.081 | – | – | – | –
3 | PPP1R11 (UniProt O60927) | inactive: -0.018 | inactive: -0.066 | inactive: -0.082 | inactive: 0.06 | inactive: 0.142
4 | PPP2R5C isoform 2 (UniProt Q13362) | inactive: -0.065 | – | – | – | –
5 | PROS1 (UniProt P07225) | inactive: 0.003 | inactive: -0.039 | inactive: -0.008 | inactive: 0.043 | inactive: 0.094
6 | PPP2R5A (UniProt Q15172) | inactive: -0.036 | inactive: 0.07 | inactive: -0.006 | inactive: -0.08 | inactive: -0.08
7 | PPT1 (UniProt P50897) | inactive: 0.047 | inactive: 0.021 | inactive: 0 | inactive: -0.003 | inactive: -0.003
8 | PRPF8 (UniProt Q6P2Q9) | inactive: -0.009 | inactive: -0.013 | inactive: -0.028 | inactive: 0.063 | inactive: 0.007
9 | PPP1CB (UniProt P62140) | inactive: 0.007 | inactive: 0.041 | inactive: 0.077 | inactive: -0.029 | inactive: 0.013
10 | PPM1F (UniProt P49593) | inactive: -0.038 | inactive: 0.058 | inactive: 0.045 | inactive: 0.017 | inactive: -0.054
11 | PPP1R2 (UniProt P41236) | inactive: 0.018 | inactive: 0.007 | inactive: -0.022 | inactive: 0.019 | inactive: 0.031
12 | PPP1R35 (UniProt Q8TAP8) | inactive: 0.01 | inactive: 0.006 | inactive: 0.067 | inactive: 0.03 | active: 0.362
13 | PRMT8 (UniProt Q9NR22) | inactive: -0.002 | inactive: 0.133 | inactive: 0.046 | inactive: -0.028 | inactive: -0.015
14 | PPP6R1 (UniProt Q9UPN7) | inactive: -0.011 | inactive: 0.002 | inactive: 0.108 | inactive: 0.005 | inactive: 0.001
15 | PRMT9 (UniProt Q6P2P2) | inactive: 0.031 | inactive: -0.044 | inactive: 0.11 | inactive: -0.03 | inactive: 0.004
16 | PRKACA (UniProt P17612) | inactive: -0.01 | inactive: 0.005 | inactive: -0.053 | inactive: -0.009 | inactive: 0.035
17 | PPP1R8 (UniProt Q12972) | inactive: 0.006 | inactive: 0.073 | inactive: 0 | inactive: -0.025 | inactive: 0.023
18 | PRKCSH (UniProt P14314) | inactive: -0.022 | inactive: 0.013 | inactive: 0.002 | inactive: -0.029 | inactive: -0.024
19 | PPP2R1B isoform 2 (UniProt P30154) | inactive: -0.075 | inactive: -0.006 | inactive: 0.043 | inactive: 0.022 | inactive: -0.045
20 | PRKAR2A (UniProt P13861) | inactive: 0.044 | inactive: 0.046 | inactive: 0.054 | inactive: 0.018 | inactive: -0.003
21 | PPP5C (UniProt P53041) | inactive: -0.011 | inactive: 0.02 | inactive: 0.01 | inactive: -0.013 | inactive: -0.005
22 | PPP1CC isoform 2 (UniProt P36873) | inactive: -0.046 | inactive: -0.025 | inactive: 0.028 | inactive: -0.031 | inactive: 0.012
23 | PRKCQ (UniProt Q04759) | inactive: -0.064 | inactive: 0.069 | inactive: 0.104 | inactive: 0.033 | inactive: 0
24 | PRKAA1 isoform 2 (UniProt Q13131) | inactive: 0.001 | inactive: 0.085 | inactive: 0.024 | inactive: 0.004 | inactive: 0.019
25 | PRKAG1 isoform 3 (UniProt P54619) | inactive: -0.008 | inactive: 0.067 | inactive: 0.019 | inactive: -0.011 | inactive: -0.017
26 | PREB (UniProt Q9HCU5) | inactive: 0.013 | inactive: 0.036 | inactive: 0.053 | inactive: -0.036 | inactive: 0.054
27 | PRKCG (UniProt P05129) | inactive: -0.216 | inactive: -0.025 | inactive: 0.033 | inactive: -0.017 | inactive: 0.077

Whole records, quoted from the list. Values in the order: log2 fold change [1] | log2 fold change [2] | log2 fold change [3] | log2 fold change [4] | log2 fold change [5]
PPP1R35 (UniProt Q8TAP8) in the list: inactive: 0.01 | inactive: 0.006 | inactive: 0.067 | inactive: 0.03 | active: 0.362
PRKAR2A (UniProt P13861) in the list: inactive: 0.044 | inactive: 0.046 | inactive: 0.054 | inactive: 0.018 | inactive: -0.003

Following part.

Row | Target | log2 fold change [1] | log2 fold change [2] | log2 fold change [3] | log2 fold change [4] | log2 fold change [5]
28 | PPM1B (UniProt O75688) | inactive: -0.05 | inactive: 0.02 | inactive: 0.044 | inactive: 0.015 | inactive: -0.05
29 | PRPF38A (UniProt Q8NAV1) | inactive: 0.014 | inactive: -0.011 | inactive: 0.024 | inactive: 0.007 | inactive: 0.015
30 | PRRC2A (UniProt P48634) | inactive: 0.067 | inactive: -0.084 | inactive: -0.057 | inactive: 0.072 | inactive: 0.023
31 | PRKD2 isoform 3 (UniProt Q9BZL6) | inactive: -0.051 | inactive: 0.238 | inactive: -0.057 | inactive: 0.064 | inactive: 0.028
32 | PRKDC (UniProt P78527) | inactive: -0.017 | inactive: 0.048 | inactive: 0.029 | inactive: -0.031 | inactive: -0.019
33 | PRPF4B (UniProt Q13523) | inactive: 0.118 | inactive: -0.098 | inactive: 0 | inactive: 0.109 | inactive: 0.168
34 | PRKAB1 (UniProt Q9Y478) | inactive: 0.011 | inactive: 0.037 | inactive: -0.024 | inactive: -0.093 | inactive: -0.037
35 | PPP2R1A (UniProt P30153) | inactive: 0.001 | inactive: 0.052 | inactive: 0.024 | inactive: -0.025 | inactive: -0.016
36 | PPP2CB (UniProt P62714) | inactive: -0.01 | inactive: 0.006 | inactive: -0.005 | inactive: 0.008 | inactive: 0.028
37 | PRPF4 (UniProt O43172) | inactive: -0.028 | inactive: 0.01 | inactive: 0.034 | inactive: -0.02 | inactive: -0.01
38 | PPP2R2A isoform 2 (UniProt P63151) | inactive: 0.021 | inactive: 0.037 | inactive: 0.016 | inactive: -0.006 | inactive: 0.006
39 | PROSER2 (UniProt Q86WR7) | inactive: 0.012 | inactive: 0.006 | inactive: -0.015 | inactive: -0.051 | inactive: 0.029
40 | PRPS2 isoform 2 (UniProt P11908) | inactive: 0.014 | inactive: 0.008 | inactive: -0.029 | inactive: -0.028 | inactive: 0.018
41 | PRPF18 (UniProt Q99633) | inactive: -0.037 | inactive: 0.006 | inactive: 0.097 | inactive: 0.208 | inactive: 0.001
42 | PPP3CB isoform 4 (UniProt P16298) | inactive: -0.051 | inactive: 0.031 | inactive: 0.047 | inactive: -0.012 | inactive: -0.03
43 | PRKAR1B (UniProt P31321) | inactive: 0.21 | inactive: -0.026 | inactive: 0.059 | inactive: 0.019 | inactive: -0.061
44 | PRDX1 (UniProt Q06830) | inactive: -0.019 | inactive: 0.045 | inactive: 0.045 | inactive: -0.009 | inactive: -0.003
45 | PPOX (UniProt P50336) | inactive: 0.385 | inactive: 0.092 | inactive: 0.129 | inactive: 0.04 | inactive: -0.045
46 | PRSS2 (UniProt P07478) | inactive: 0.023 | inactive: -0.033 | inactive: 0.07 | inactive: 0.044 | inactive: 0.04
47 | PPP3CC isoform 3 (UniProt P48454) | inactive: 0.015 | inactive: 0.031 | inactive: 0.076 | inactive: 0.003 | inactive: -0.011
48 | PPP1R10 (UniProt Q96QC0) | inactive: 0.087 | inactive: -0.189 | inactive: -0.177 | inactive: 0.086 | inactive: 0.026
49 | PPT2 isoform 3 (UniProt Q9UMR5) | inactive: 0.015 | inactive: -0.062 | inactive: -0.011 | inactive: -0.053 | inactive: 0.03
50 | PRPSAP1 isoform 2 (UniProt Q14558) | inactive: 0.023 | inactive: 0 | inactive: -0.099 | inactive: 0.027 | inactive: 0.016
51 | PRRC2B (UniProt Q5JSZ5) | inactive: -0.005 | inactive: 0.007 | inactive: -0.012 | inactive: -0.014 | inactive: 0.069
52 | PPP1R14A (UniProt Q96A00) | inactive: 0.011 | inactive: 0.009 | inactive: -0.002 | inactive: 0.061 | inactive: -0.013
53 | PRKAR2B (UniProt P31323) | inactive: -0.065 | inactive: -0.012 | inactive: -0.06 | inactive: -0.024 | inactive: 0.007
